PubChem BioAssay AID1224826 | NIAID | 2016
Aim: 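Knock-downs that raise or lower Tnf reporter signal after endotoxin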 (primary screen). Cell system: RAW264.7 G9 macrophages from mouse bearing reporters for p65 (GFP) and the Tnf promoter (mCherry). Reagent: siRNA pool against mouse genes, 100 nM. Duration: 16 h of LPS stimulation, after 2 days of siRNA transfection. Treatment: bacterial lipopolysaccharide (Salmonella minnesota R595), 10 ng/ml. Detection: 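Imaged Tnf reporter mCherry in nuclei, minus background, normalised per plate to the median and expressed as robust z-scores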. Direction: Tnf reporter robust z-score: higher = stronger Tnf promoter reporter signal after LPS. Active means: 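Called active when robust z-score is at most -1.3, matching the median of the Tlr4 knock-down control, or over 3; control wells and wells with under 50 cells never active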. Meaning of the calls: active = Tnf reporter clearly lowered or raised; inactive = no clear change in Tnf reporter.
Here is one part, drawn at random, of about 17,000 reagents. About 1,110 of them (6.6%) count as active. 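Active means lowered or raised reporter signal; replicate intensities are raw and not normalised per plate.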 A reagent listed more than once was tested more than once; the source does not tell the runs apart. Not all columns of the deposit are shown.

Atoh8 (GeneID 71093) — Tnf reporter robust z-score = -0.21; fewer than 50 cells in well = enough cells in well; Call = inactive
Npffr2 (GeneID 104443) — Tnf reporter robust z-score = -0.73; fewer than 50 cells in well = enough cells in well; Call = inactive
Mkrn3 (GeneID 22652) — Tnf reporter robust z-score = 0.56; fewer than 50 cells in well = enough cells in well; Call = inactive
Lcn10 (GeneID 332578) — Tnf reporter robust z-score = 0.85; fewer than 50 cells in well = enough cells in well; Call = inactive
Drc8 (GeneID 68226) — fewer than 50 cells in well = fewer than 50 cells per well; well left out of calls; Call = inactive
C1qtnf9 (GeneID 239126) — Tnf reporter robust z-score = -0.6; fewer than 50 cells in well = enough cells in well; Call = inactive
Or8g26 (GeneID 258323) — Tnf reporter robust z-score = -1.21; fewer than 50 cells in well = enough cells in well; Call = inactive
Ube2g1 (GeneID 67128) — Tnf reporter robust z-score = 0.91; fewer than 50 cells in well = enough cells in well; Call = inactive
Mtmr12 (GeneID 268783) — Tnf reporter robust z-score = 0.3; fewer than 50 cells in well = enough cells in well; Call = inactive
Sumf1 (GeneID 58911) — Tnf reporter robust z-score = -0.25; fewer than 50 cells in well = enough cells in well; Call = inactive
Avpr1a (GeneID 54140) — Tnf reporter robust z-score = -0.35; fewer than 50 cells in well = enough cells in well; Call = inactive
Avpr1a (GeneID 54140) — Tnf reporter robust z-score = -0.31; fewer than 50 cells in well = enough cells in well; Call = inactive
Cdnf (GeneID 227526) — Tnf reporter robust z-score = -0.95; fewer than 50 cells in well = enough cells in well; Call = inactive
Kcnq5 (GeneID 226922) — Tnf reporter robust z-score = -0.1; fewer than 50 cells in well = enough cells in well; Call = inactive
Fam149b (GeneID 105428) — Tnf reporter robust z-score = -1.32; fewer than 50 cells in well = enough cells in well; Call = active
Tapbpl (GeneID 213233) — fewer than 50 cells in well = fewer than 50 cells per well; well left out of calls; Call = inactive
Ppp1cc (GeneID 19047) — Tnf reporter robust z-score = 0.53; fewer than 50 cells in well = enough cells in well; Call = inactive
Atp5pf (GeneID 11957) — Tnf reporter robust z-score = 1.33; fewer than 50 cells in well = enough cells in well; Call = inactive
Cd200 (GeneID 17470) — Tnf reporter robust z-score = -0.51; fewer than 50 cells in well = enough cells in well; Call = inactive
Hsd17b14 (GeneID 66065) — Tnf reporter robust z-score = -1.23; fewer than 50 cells in well = enough cells in well; Call = inactive
E2f6 (GeneID 50496) — Tnf reporter robust z-score = 0.74; fewer than 50 cells in well = enough cells in well; Call = inactive
